What all share (assay): co-IP; nuclear proteins (25 ug/group) of human blood mDCs treated 40 h with medium, TSLP and/or curdlan; pre-cleared; anti-p105/p50 or anti-RelB with Protein A/G magnetic beads overnight at 4°C; immunoblot
For experiment [1], the target named is T1, p50 (human (endogenous in blood mDCs)), P19838.
T1 chain: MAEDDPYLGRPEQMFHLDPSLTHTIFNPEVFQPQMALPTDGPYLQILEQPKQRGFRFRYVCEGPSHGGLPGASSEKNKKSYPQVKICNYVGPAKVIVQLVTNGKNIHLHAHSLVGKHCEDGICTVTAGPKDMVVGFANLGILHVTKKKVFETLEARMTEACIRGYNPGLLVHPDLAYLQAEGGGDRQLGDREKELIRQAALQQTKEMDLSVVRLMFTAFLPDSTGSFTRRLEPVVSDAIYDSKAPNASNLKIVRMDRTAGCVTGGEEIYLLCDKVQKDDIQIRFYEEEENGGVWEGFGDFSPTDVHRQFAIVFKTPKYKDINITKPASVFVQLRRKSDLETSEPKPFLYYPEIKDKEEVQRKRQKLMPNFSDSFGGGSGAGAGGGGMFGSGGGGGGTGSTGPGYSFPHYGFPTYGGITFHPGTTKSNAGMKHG
Conditions: remark: other sources report otherwise.

Experiment [2] deals with T2, RelB (human (endogenous in blood mDCs)), Q01201.
T2 chain: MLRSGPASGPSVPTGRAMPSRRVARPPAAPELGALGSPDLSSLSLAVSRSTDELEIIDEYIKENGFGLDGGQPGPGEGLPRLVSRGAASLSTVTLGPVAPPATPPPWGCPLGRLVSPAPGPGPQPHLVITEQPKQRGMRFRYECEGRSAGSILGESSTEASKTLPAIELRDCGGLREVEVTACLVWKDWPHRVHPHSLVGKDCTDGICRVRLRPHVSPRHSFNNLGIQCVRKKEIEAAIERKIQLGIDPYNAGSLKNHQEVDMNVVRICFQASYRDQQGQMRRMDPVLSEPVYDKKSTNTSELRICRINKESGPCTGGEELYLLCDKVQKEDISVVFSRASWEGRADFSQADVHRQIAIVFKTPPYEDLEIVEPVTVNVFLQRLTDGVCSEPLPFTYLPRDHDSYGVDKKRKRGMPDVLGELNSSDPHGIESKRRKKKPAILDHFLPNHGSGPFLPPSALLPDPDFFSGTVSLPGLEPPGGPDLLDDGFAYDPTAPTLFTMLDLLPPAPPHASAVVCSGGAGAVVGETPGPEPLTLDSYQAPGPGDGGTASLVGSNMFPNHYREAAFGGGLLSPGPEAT
Conditions: remark: other sources report otherwise.

In experiment [3] the target is T3, RelB (human (endogenous in blood mDCs)) (UniProt Q01201).
T3 sequence: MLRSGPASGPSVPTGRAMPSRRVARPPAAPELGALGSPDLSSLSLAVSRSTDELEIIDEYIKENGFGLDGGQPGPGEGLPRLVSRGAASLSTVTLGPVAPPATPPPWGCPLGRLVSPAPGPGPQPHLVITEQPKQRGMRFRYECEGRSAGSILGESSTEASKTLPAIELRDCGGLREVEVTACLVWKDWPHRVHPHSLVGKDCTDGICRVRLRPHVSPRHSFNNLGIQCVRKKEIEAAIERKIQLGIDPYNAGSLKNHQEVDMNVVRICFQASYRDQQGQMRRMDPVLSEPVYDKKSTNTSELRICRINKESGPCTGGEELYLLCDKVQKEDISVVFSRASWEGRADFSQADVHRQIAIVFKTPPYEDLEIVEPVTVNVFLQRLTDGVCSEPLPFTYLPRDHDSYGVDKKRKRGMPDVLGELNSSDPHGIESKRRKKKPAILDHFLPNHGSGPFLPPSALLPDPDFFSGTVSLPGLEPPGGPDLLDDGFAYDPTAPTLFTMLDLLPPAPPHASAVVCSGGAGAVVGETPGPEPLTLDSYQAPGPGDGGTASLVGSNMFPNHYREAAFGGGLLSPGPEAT

Our source for the binding values is publication PMC8293820.

No constants are given. Whether binding was seen depends on the method and setting. In cells and extracts the contact can be indirect. Some binding calls cover weakened binding; strength is not graded here.

B1: RelB, Q01201 1-579 (protein)
chain: MLRSGPASGPSVPTGRAMPSRRVARPPAAPELGALGSPDLSSLSLAVSRSTDELEIIDEYIKENGFGLDGGQPGPGEGLPRLVSRGAASLSTVTLGPVAPPATPPPWGCPLGRLVSPAPGPGPQPHLVITEQPKQRGMRFRYECEGRSAGSILGESSTEASKTLPAIELRDCGGLREVEVTACLVWKDWPHRVHPHSLVGKDCTDGICRVRLRPHVSPRHSFNNLGIQCVRKKEIEAAIERKIQLGIDPYNAGSLKNHQEVDMNVVRICFQASYRDQQGQMRRMDPVLSEPVYDKKSTNTSELRICRINKESGPCTGGEELYLLCDKVQKEDISVVFSRASWEGRADFSQADVHRQIAIVFKTPPYEDLEIVEPVTVNVFLQRLTDGVCSEPLPFTYLPRDHDSYGVDKKRKRGMPDVLGELNSSDPHGIESKRRKKKPAILDHFLPNHGSGPFLPPSALLPDPDFFSGTVSLPGLEPPGGPDLLDDGFAYDPTAPTLFTMLDLLPPAPPHASAVVCSGGAGAVVGETPGPEPLTLDSYQAPGPGDGGTASLVGSNMFPNHYREAAFGGGLLSPGPEAT
As to B1, the binding entry in experiment [1] was “binds”.

B2: p50, P19838 1-433 (protein)
chain: MAEDDPYLGRPEQMFHLDPSLTHTIFNPEVFQPQMALPTDGPYLQILEQPKQRGFRFRYVCEGPSHGGLPGASSEKNKKSYPQVKICNYVGPAKVIVQLVTNGKNIHLHAHSLVGKHCEDGICTVTAGPKDMVVGFANLGILHVTKKKVFETLEARMTEACIRGYNPGLLVHPDLAYLQAEGGGDRQLGDREKELIRQAALQQTKEMDLSVVRLMFTAFLPDSTGSFTRRLEPVVSDAIYDSKAPNASNLKIVRMDRTAGCVTGGEEIYLLCDKVQKDDIQIRFYEEEENGGVWEGFGDFSPTDVHRQFAIVFKTPKYKDINITKPASVFVQLRRKSDLETSEPKPFLYYPEIKDKEEVQRKRQKLMPNFSDSFGGGSGAGAGGGGMFGSGGGGGGTGSTGPGYSFPHYGFPTYGGITFHPGTTKSNAGMKHG
On to B2, for which the binding entry in experiment [2] is on record as “binds”.

B3: p100 (protein, UniProt Q00653-1 1-900)
chain: MESCYNPGLDGIIEYDDFKLNSSIVEPKEPAPETADGPYLVIVEQPKQRGFRFRYGCEGPSHGGLPGASSEKGRKTYPTVKICNYEGPAKIEVDLVTHSDPPRAHAHSLVGKQCSELGICAVSVGPKDMTAQFNNLGVLHVTKKNMMGTMIQKLQRQRLRSRPQGLTEAEQRELEQEAKELKKVMDLSIVRLRFSAFLRASDGSFSLPLKPVISQPIHDSKSPGASNLKISRMDKTAGSVRGGDEVYLLCDKVQKDDIEVRFYEDDENGWQAFGDFSPTDVHKQYAIVFRTPPYHKMKIERPVTVFLQLKRKRGGDVSDSKQFTYYPLVEDKEEVQRKRRKALPTFSQPFGGGSHMGGGSGGAAGGYGGAGGGGSLGFFPSSLAYSPYQSGAGPMGCYPGGGGGAQMAATVPSRDSGEEAAEPSAPSRTPQCEPQAPEMLQRAREYNARLFGLAQRSARALLDYGVTADARALLAGQRHLLTAQDENGDTPLHLAIIHGQTSVIEQIVYVIHHAQDLGVVNLTNHLHQTPLHLAVITGQTSVVSFLLRVGADPALLDRHGDSAMHLALRAGAGAPELLRALLQSGAPAVPQLLHMPDFEGLYPVHLAVRARSPECLDLLVDSGAEVEATERQGGRTALHLATEMEELGLVTHLVTKLRANVNARTFAGNTPLHLAAGLGYPTLTRLLLKAGADIHAENEEPLCPLPSPPTSDSDSDSEGPEKDTRSSFRGHTPLDLTCSTKVKTLLLNAAQNTMEPPLTPPSPAGPGLSLGDTALQNLEQLLDGPEAQGSWAELAERLGLRSLVDTYRQTTSPSGSLLRSYELAGGDLAGLLEALSDMGLEEGVRLLRGPETRDKLPSTAEVKEDSAYGSQSVEQEAEKLGPPPEPPGGLCHGHPQPQVH
For the molecule B3, the binding result in experiment [3] is recorded as “binds”.
